Assay results published in patent US12491217B2, “Compositions and methods for promoting healthy neural development in an unborn baby” (The Regents of the University of California, priority 2019, dated 2025).

Assay: Metabolomics of fetal brain at E14.5
Type: in vivo, C57Bl/6J mice
Settings: E14.5 fetal brain metabolite level; for fold of change ABX/SPF: ANOVA contrast ABX vs SPF; for fold of change GF/ABX: ANOVA contrast GF vs ABX; for fold of change GF/SPF: ANOVA contrast GF vs SPF; for fold of change GF/Sp: ANOVA contrast GF vs Sp; for fold of change Sp/ABX: ANOVA contrast Sp vs ABX; for fold of change Sp/SPF: ANOVA contrast Sp vs SPF

Row | SMILES | fold of change ABX/SPF | fold of change GF/ABX | fold of change GF/SPF | fold of change GF/Sp | fold of change Sp/ABX | fold of change Sp/SPF
1 | CCCCCCCCCCCCCCCC(=O)OCC(O)COP(=O)(O)OCC(O)CO (stereo not drawn) [compound 2199] | 0.82 | 0.45 | 0.37 | 0.85 | 0.53 | 0.43
2 | CCCCCCCC/C=C\CCCCCCCC(=O)OCC(O)COP(=O)(O)OCC(O)CO (stereo not drawn) [compound 2203] | 0.98 | 0.65 | 0.64 | 1.07 | 0.61 | 0.60
3 | CCCCCCCCCCCCCCCC(=O)OCC(O)COP(=O)(O)OC1C(O)C(O)C(O)C(O)C1O (stereo not drawn) [compound 2206] | 0.59 | 0.87 | 0.52 | 0.84 | 1.04 | 0.61
4 | CCCCCCCCCCCCCCCCCC(=O)OCC(O)COP(=O)(O)OC1C(O)C(O)C(O)C(O)C1O (stereo not drawn) [compound 2209] | 0.63 | 0.85 | 0.53 | 0.88 | 0.96 | 0.60
5 | CCCCCCCC/C=C\CCCCCCCC(=O)OCC(O)COP(=O)(O)OC1C(O)C(O)C(O)C(O)C1O (stereo not drawn) [compound 2211] | 0.61 | 1.02 | 0.62 | 0.84 | 1.22 | 0.74
6 | CCCCC/C=C\C/C=C\C/C=C\C/C=C\CCCC(=O)OCC(O)COP(=O)(O)OC1C(O)C(O)C(O)C(O)C1O (stereo not drawn) [compound 2217] | 0.91 | 0.56 | 0.51 | 0.92 | 0.61 | 0.56
7 | CCCCCCCC/C=C\CCCCCCCC(=O)OC(CO/C=C\CCCCCCCCCCCCCC)COP(=O)(O)OCCN (stereo not drawn) [compound 2310] | 1.04 | 0.86 | 0.90 | 1.02 | 0.85 | 0.88
8 | CCCCC/C=C\C/C=C\CCCCCCCC(=O)OC(CO/C=C\CCCCCCCCCCCCCC)COP(=O)(O)OCCN (stereo not drawn) [compound 2311] | 1.23 | 0.83 | 1.01 | 1.20 | 0.69 | 0.84
9 | CCCCCCCCCCCCCC/C=C\OC[C@H](COP(=O)([O-])OCC[N+](C)(C)C)OC(=O)CCCCCCCCCCCCCCC [compound 2312] | 0.73 | 0.91 | 0.67 | 0.87 | 1.05 | 0.77
10 | CCCCCCC=CCCCCCCCC(=O)OC(COC=CCCCCCCCCCCCCCC)COP(=O)([O-])OCC[N+](C)(C)C (stereo not drawn) [compound 2313] | 0.81 | 0.93 | 0.75 | 0.86 | 1.08 | 0.87
11 | CCCCCC=CCC=CCC=CCC=CCCCC(=O)OC(COC=CCCCCCCCCCCCCCC)COP(=O)(O)OCCN (stereo not drawn) [compound 2314] | 0.99 | 0.89 | 0.88 | 1.07 | 0.83 | 0.82
12 | CCCCCCCC/C=C\CCCCCCCC(=O)OC(CO/C=C\CCCCCCCCCCCCCCCC)COP(=O)(O)OCCN (stereo not drawn) [compound 2318] | 1.01 | 0.81 | 0.81 | 0.97 | 0.84 | 0.84
13 | CCCCC/C=C\C/C=C\C/C=C\C/C=C\CCCC(=O)OC(CO/C=C\CCCCCCCCCCCCCCCC)COP(=O)(O)OCCN (stereo not drawn) [compound 2327] | 0.92 | 0.89 | 0.82 | 1.03 | 0.87 | 0.80
14 | CCCCCCCCCCCCCCC=COCC(O)COP(=O)(O)OCCN (stereo not drawn) [compound 2343] | 0.73 | 0.90 | 0.65 | 0.85 | 1.05 | 0.77
15 | CCCCCCCCC=CCCCCCCC=COCC(O)COP(=O)(O)OCCN (stereo not drawn) [compound 2345] | 0.91 | 0.77 | 0.70 | 0.88 | 0.87 | 0.79
16 | CCCCCCCCCCCCCCCC/C=C\OCC(O)COP(=O)(O)OCCN (stereo not drawn) [compound 2347] | 0.75 | 0.84 | 0.63 | 0.83 | 1.01 | 0.76

Row | SMILES | fold of change ABX/SPF | fold of change GF/ABX | fold of change GF/SPF | fold of change GF/Sp | fold of change Sp/ABX | fold of change Sp/SPF
17 | CCCCCCCC/C=C\CCCCCC/C=C\OCC(COP(=O)(O)OCCN)OC(=O)CCCCCCC/C=C\CCCCCCCC (stereo not drawn) [compound 2348] | 1.16 | 0.84 | 0.97 | 1.09 | 0.77 | 0.89
18 | O=P(O)(O)OCC(O)CO (stereo not drawn) [compound 2351] | 0.79 | 0.86 | 0.68 | 1.06 | 0.81 | 0.64
19 | O=P(O)(OCC(O)CO)OCC(O)CO (stereo not drawn) [compound 2356] | 0.66 | 1.17 | 0.77 | 1.02 | 1.14 | 0.76
20 | CCCCCCCCCCCCCC(=O)OCC(O)CO (stereo not drawn) [compound 2357] | 0.91 | 0.88 | 0.80 | 1.12 | 0.78 | 0.72
21 | CCCCCCCCCCCCCCCC(=O)OCC(O)CO (stereo not drawn) [compound 2360] | 0.94 | 0.74 | 0.69 | 0.97 | 0.76 | 0.71
22 | CCCCCC/C=C\CCCCCCCC(=O)OCC(O)CO (stereo not drawn) [compound 2361] | 1.00 | 0.75 | 0.75 | 1.24 | 0.61 | 0.61
23 | CCCCCCCC/C=C\CCCCCCCC(=O)OCC(O)CO (stereo not drawn) [compound 2364] | 0.95 | 0.80 | 0.76 | 1.03 | 0.77 | 0.74
24 | CCCCC/C=C\C/C=C\C/C=C\C/C=C\CCCC(=O)OCC(O)CO (stereo not drawn) [compound 2371] | 1.02 | 0.73 | 0.74 | 1.49 | 0.49 | 0.50
25 | CC/C=C\C/C=C\C/C=C\C/C=C\C/C=C\C/C=C\CCC(=O)OCC(O)CO (stereo not drawn) [compound 2374] | 1.03 | 0.57 | 0.58 | 1.34 | 0.43 | 0.44
26 | CCCCCCCCCCCCCC(=O)OC(CO)CO [compound 2375] | 0.80 | 0.91 | 0.73 | 0.98 | 0.94 | 0.75
27 | CCCCCCCCCCCCCCCC(=O)OC(CO)CO [compound 2376] | 0.74 | 0.76 | 0.56 | 0.94 | 0.81 | 0.60
28 | CCCCCCCC/C=C\CCCCCCCC(=O)OC(CO)CO [compound 2379] | 0.81 | 0.81 | 0.65 | 0.89 | 0.91 | 0.74
29 | CCCCC/C=C\C/C=C\C/C=C\C/C=C\CCCC(=O)OC(CO)CO [compound 2381] | 0.81 | 0.86 | 0.70 | 1.59 | 0.54 | 0.44
30 | CC/C=C\C/C=C\C/C=C\C/C=C\C/C=C\C/C=C\CCC(=O)OC(CO)CO [compound 2383] | 0.99 | 0.57 | 0.56 | 1.15 | 0.49 | 0.49
31 | CCCCCCCCCCCCCCCC(=O)OCC(CO)OC(=O)CCCCCCCCCCCCCCC (stereo not drawn) [compound 2407] | 0.81 | 1.11 | 0.90 | 1.10 | 1.01 | 0.81
32 | CCCCCCCCC=CCCCCCCCC(=O)OC(CO)COC(=O)CCCCCCCCCCCCCCC (stereo not drawn) [compound 2411] | 0.83 | 0.96 | 0.79 | 0.97 | 0.98 | 0.81
